Values of other authors, collected in US11479558B2, “Substituted tetrahydropyranoindoles, derivatives thereof, and their methods of synthesis and use” (NORTHWESTERN UNIVERSITY, priority 2019, dated 2022).
At least one structure is not confirmed: it was looked up by name or label, or the drawing left a doubt.

How the values were obtained:
inflammatory pain = conditions: rats
chemically induced pain = conditions: rats and mice

SMILES: CC[C@]1(CC(=O)O)OC[C@@H](Cc2ccccc2)c2c1[nH]c1ccccc21 (relative stereo) [Pemedolac, cis-1-ethyl-1,3,4,9-tetrahydro-4-(phenylmethyl)-pyrano [3,4-b]indole-1-acetic acid]
- analgesic effects against inflammatory pain (inflammatory pain): potent analgesic effects
- analgesic effects against chemically induced pain (chemically induced pain): potent analgesic effects
